Source: PubChem BioAssay AID1259424 (University of Nebraska Medical Center, 2018)

- Purpose: 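Seek colon cancer survival genes behaving like KSR1, using a six-gene signature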 (primary screen)
- Cell system: human HCT116 colon cancer cells
- Reagent: siRNA pool against human genes, 50 nM
- Detection: 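Six signature mRNAs by branched-DNA multiplex assay, scaled to two housekeeping genes and non-targeting median, log2; matched to mean KSR1 knockdown profile by Pearson correlation and euclidean distance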
- Reading the numbers: mean correlation with KSR1 profile and KSR1 correlation: higher = expression change more like KSR1 knockdown; mean distance from KSR1 profile: higher = expression change less like KSR1 knockdown
This is an unselected part of about 14,000 deposited reagents. 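Higher correlation or smaller distance means closer resemblance to KSR1 loss; control wells, including KSR1 knockdowns, recur on many plates.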 Further read-outs or replicates are left out here. The record does not give: the time to read-out.

gene | mean correlation with KSR1 profile | mean distance from KSR1 profile | KSR1 correlation, replicate 1
SPON2 (spondin 2) | -0.234 | 2.31 | -0.127
LHX1 (LIM homeobox 1) | 0.602 | 1.21 | 0.616
MXRA8 (matrix remodeling associated 8) | 0.0345 | 3.01 | -0.0435
BIN2 (bridging integrator 2) | -0.362 | 2.16 | -0.208
HOXA2 (homeobox A2) | 0.1 | 2.57 | 0.324
BRME1 (break repair meiotic recombinase recruitment factor 1) | 0.0629 | 2.07 | -0.0377
IFT46 (intraflagellar transport 46) | -0.522 | 1.55 | -0.202
TMEM181 (transmembrane protein 181) | -0.337 | 1.97 | -0.481
CCND2 (cyclin D2) | -0.875 | 3.07 | -0.927
TPM3 (tropomyosin 3) | 0.343 | 2.91 | 0.474
BTN3A2 (butyrophilin subfamily 3 member A2) | 0.393 | 1.26 | 0.386
PPAN (peter pan homolog) | -0.459 | 1.98 | -0.583
RTN4RL1 (reticulon 4 receptor like 1) | -0.47 | 1.94 | -0.681
FRG2 (FSHD region gene 2) | -0.318 | 2.37 | -0.191
PTS (6-pyruvoyltetrahydropterin synthase) | -0.618 | 1.98 | -0.763
VCAM1 (vascular cell adhesion molecule 1) | 0.801 | 0.725 | 0.603
MFAP3L (microfibril associated protein 3 like) | -0.396 | 2.69 | -0.413
PDK2 (pyruvate dehydrogenase kinase 2) | -0.129 | 1.73 | 0.181
FAN1 (FANCD2 and FANCI associated nuclease 1) | -0.72 | 1.8 | -0.725
SLC28A1 | 0.38 | 1.86 | 0.48
FAM162A (family with sequence similarity 162 member A) | -0.394 | 1.76 | -0.37
CCT8 (chaperonin containing TCP1 subunit 8) | -0.307 | 3.27 | -0.267
PARP8 (poly(ADP-ribose) polymerase family member 8) | 0.481 | 2.38 | 0.549
SMG1 | 0.161 | 1.67 | 0.225
VIM (vimentin) | -0.562 | 2.54 | -0.455
FERRY3 (FERRY endosomal RAB5 effector complex subunit 3) | 0.177 | 1.1 | -0.064
DYNC1LI2 (dynein cytoplasmic 1 light intermediate chain 2) | 0.191 | 3.01 | 0.0187
IRF7 (interferon regulatory factor 7) | -0.45 | 2.81 | -0.0255
HINFP (histone H4 transcription factor) | 0.624 | 1.09 | 0.621
HAUS2 (HAUS augmin like complex subunit 2) | -0.599 | 2.56 | -0.585
UCKL1 (uridine-cytidine kinase 1 like 1) | -0.278 | 2.26 | 0.652
NUP160 (nucleoporin 160) | -0.526 | 2.6 | -0.436
RPL37A (ribosomal protein L37a) | -0.486 | 3.05 | -0.472
VWA5A (von Willebrand factor A domain containing 5A) | 0.237 | 1.55 | 0.236
ZNF345 (zinc finger protein 345) | 0.0215 | 1.61 | -0.0505
SLC39A8 | 0.0786 | 1.01 | -0.272
UTP14C (UTP14C small subunit processome component) | -0.247 | 2.1 | -0.109
CEP55 (centrosomal protein 55) | -0.364 | 3.63 | -0.335
IGF1R (insulin like growth factor 1 receptor) | 0.0959 | 3.21 | 0.275
LALBA (lactalbumin alpha) | 0.357 | 1.16 | 0.0444
BPESC1 (blepharophimosis, epicanthus inversus and ptosis candidate 1) | -0.386 | 4.04 | -0.436
PMEL (premelanosome protein) | -0.586 | 3.88 | -0.559
ADCK1 (aarF domain containing kinase 1) | 0.0706 | 2.32 | 0.15
IFNA16 (interferon alpha 16) | -0.0849 | 3.57 | 0.0182
CILP (cartilage intermediate layer protein) | -0.0343 | 3.69 | 0.143
RRM2 (ribonucleotide reductase regulatory subunit M2) | 0.135 | 4.82 | 0.257
ITGAM (integrin subunit alpha M) | -0.464 | 2.63 | -0.423
QPRT (quinolinate phosphoribosyltransferase) | 0.354 | 2.18 | 0.447
RPL14 (ribosomal protein L14) | -0.0572 | 3.53 | -0.0179
CEP192 (centrosomal protein 192) | -0.882 | 2.79 | -0.814

6 entries already listed, sorted by “mean distance from KSR1 profile”, low to high.
gene | mean correlation with KSR1 profile | mean distance from KSR1 profile | KSR1 correlation, replicate 1
IFT46 (intraflagellar transport 46) | -0.522 | 1.55 | -0.202
TMEM181 (transmembrane protein 181) | -0.337 | 1.97 | -0.481
BRME1 (break repair meiotic recombinase recruitment factor 1) | 0.0629 | 2.07 | -0.0377
BIN2 (bridging integrator 2) | -0.362 | 2.16 | -0.208
HOXA2 (homeobox A2) | 0.1 | 2.57 | 0.324
CCND2 (cyclin D2) | -0.875 | 3.07 | -0.927
